Results are given in words; binding and its absence hold for the method and conditions named. Binding seen in cells or lysates may run through a third protein. Some binding calls cover weakened binding; strength is not graded here.
Biological target: p21-activated kinase 1 (PAK1) (rat (endogenous in primary rat OPCs)) (UniProt P35465)
Assay: co-IP; PAK1 antibody (#2602) or rabbit IgG isotype control cross-linked to Protein A/G magnetic beads; 1 mg OPC protein extract, overnight at 4 °C; low-pH elution; immunoblot for PDGFRa

Protein sequences, listed by entry. Tags and fused reporters are not part of them. Residues count along the entry.
UniProt P35465: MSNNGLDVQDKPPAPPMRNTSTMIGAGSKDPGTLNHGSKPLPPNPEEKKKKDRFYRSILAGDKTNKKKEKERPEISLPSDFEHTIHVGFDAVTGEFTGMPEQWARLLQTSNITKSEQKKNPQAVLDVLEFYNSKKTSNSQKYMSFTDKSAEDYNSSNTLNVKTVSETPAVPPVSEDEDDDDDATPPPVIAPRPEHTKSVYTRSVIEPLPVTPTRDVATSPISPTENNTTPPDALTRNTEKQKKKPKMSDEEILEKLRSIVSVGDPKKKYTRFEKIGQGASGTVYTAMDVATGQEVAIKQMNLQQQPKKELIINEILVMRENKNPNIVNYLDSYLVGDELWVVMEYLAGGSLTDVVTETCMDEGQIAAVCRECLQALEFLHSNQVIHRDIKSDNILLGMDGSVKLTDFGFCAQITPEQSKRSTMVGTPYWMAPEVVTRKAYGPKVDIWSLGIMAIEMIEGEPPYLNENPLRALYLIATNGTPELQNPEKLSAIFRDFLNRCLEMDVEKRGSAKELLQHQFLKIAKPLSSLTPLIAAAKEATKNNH
UniProt P20786, residues 24-1088: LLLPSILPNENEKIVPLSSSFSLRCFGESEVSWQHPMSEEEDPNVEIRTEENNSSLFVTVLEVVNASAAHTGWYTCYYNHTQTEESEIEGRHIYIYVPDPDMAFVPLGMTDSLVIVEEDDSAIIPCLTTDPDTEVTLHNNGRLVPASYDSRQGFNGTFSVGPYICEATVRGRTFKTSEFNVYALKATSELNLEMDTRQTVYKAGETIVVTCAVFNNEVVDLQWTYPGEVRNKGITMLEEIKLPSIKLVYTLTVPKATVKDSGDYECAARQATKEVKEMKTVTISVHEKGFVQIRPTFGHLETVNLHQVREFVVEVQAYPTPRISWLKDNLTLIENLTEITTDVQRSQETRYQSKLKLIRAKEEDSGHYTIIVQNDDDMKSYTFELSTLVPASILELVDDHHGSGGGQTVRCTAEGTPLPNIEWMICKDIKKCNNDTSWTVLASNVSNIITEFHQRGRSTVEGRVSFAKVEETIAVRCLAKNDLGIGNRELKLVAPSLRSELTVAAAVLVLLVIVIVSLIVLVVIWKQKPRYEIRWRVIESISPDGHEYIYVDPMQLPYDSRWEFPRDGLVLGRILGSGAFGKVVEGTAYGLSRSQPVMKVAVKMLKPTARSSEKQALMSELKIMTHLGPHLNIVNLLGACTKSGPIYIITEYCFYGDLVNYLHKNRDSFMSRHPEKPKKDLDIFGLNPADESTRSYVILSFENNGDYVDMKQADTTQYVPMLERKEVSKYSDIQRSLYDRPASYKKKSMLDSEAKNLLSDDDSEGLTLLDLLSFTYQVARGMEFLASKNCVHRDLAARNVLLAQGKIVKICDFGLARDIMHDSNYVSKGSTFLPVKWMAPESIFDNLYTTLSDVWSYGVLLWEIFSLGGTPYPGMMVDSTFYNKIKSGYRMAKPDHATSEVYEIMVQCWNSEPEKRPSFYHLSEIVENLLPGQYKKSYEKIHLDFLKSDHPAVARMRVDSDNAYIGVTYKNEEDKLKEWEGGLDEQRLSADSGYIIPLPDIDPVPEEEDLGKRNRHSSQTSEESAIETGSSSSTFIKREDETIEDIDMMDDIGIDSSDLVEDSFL

binding: binds
Substance: PDGFRa (from UniProt P20786 24-1088) (receptor)
